Assay results published in article PMC9947007.
These are yes or no findings as the source states them, for the method shown. Binding seen in cells or lysates may run through a third protein. Some binding calls cover weakened binding; strength is not graded here.

By UniProt entry, the sequences of proteins in these tests, tags left out.
UniProt Q07832: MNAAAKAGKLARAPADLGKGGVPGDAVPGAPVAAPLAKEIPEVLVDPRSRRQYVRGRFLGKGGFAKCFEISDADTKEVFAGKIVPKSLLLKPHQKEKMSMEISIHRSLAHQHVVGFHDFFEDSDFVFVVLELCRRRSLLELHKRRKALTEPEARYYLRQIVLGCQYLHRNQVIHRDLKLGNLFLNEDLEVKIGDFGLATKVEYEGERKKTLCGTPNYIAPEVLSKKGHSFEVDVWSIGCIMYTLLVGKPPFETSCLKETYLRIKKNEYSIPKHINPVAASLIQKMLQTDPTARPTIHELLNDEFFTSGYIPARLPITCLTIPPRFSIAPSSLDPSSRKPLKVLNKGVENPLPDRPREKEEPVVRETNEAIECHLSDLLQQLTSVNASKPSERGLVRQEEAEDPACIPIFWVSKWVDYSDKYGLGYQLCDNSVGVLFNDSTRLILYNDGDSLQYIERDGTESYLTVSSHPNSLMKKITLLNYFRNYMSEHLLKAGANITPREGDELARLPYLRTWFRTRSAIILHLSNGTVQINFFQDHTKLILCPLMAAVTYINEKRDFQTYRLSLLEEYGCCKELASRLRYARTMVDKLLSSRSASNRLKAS
UniProt Q8CIN4: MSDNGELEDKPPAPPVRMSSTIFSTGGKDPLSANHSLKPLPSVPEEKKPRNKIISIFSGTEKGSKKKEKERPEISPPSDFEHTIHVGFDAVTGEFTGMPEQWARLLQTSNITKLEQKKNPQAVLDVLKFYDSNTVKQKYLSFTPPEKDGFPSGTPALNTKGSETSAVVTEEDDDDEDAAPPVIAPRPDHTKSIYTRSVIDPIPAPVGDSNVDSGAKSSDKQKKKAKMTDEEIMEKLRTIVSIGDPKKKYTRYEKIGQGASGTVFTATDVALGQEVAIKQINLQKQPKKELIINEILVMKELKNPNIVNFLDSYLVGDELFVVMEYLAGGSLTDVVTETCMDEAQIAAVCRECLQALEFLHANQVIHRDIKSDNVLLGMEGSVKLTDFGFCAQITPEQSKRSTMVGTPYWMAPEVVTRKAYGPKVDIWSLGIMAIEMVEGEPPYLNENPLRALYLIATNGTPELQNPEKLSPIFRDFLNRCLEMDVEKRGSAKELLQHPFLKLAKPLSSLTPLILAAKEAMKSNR

Key:
[1] = target: polo-like kinase (PLK1) (mouse (endogenous in oocytes)) (UniProt Q07832); experiment: proximity ligation; in situ PLA (Duolink Red Starter Kit Mouse/Rabbit) on fixed MI-stage mouse oocytes with anti-PAK2 and anti-PLK1 antibodies; oocytes injected with Pak2-siRNA as negative control; confocal microscopy
[2] = target: polo-like kinase (PLK1) (mouse (endogenous in oocytes)) (UniProt Q07832); experiment: co-IP; 1500-2000 MI oocytes lysed in RIPA buffer with phosphatase inhibitors; supernatant incubated with anti-PAK2 or anti-PLK1 antibody (or IgG control) overnight at 4 °C, then protein G beads; eluates blotted for PAK2 and PLK1
[3] = target: p21-activated kinase 2 (PAK2) (mouse (endogenous in oocytes)) (UniProt Q8CIN4); experiment: as above

| binding [1] | binding [2] | binding [3] | Substance |
| --- | --- | --- | --- |
| binds | binds | – | p21-activated kinase 2 (PAK2) (from UniProt Q8CIN4 1-524) |
| – | – | binds | polo-like kinase (PLK1) (from UniProt Q07832 1-603) |
